According to PubChem BioAssay AID248 (DTP/NCI, 2004):
The list is a part of this screen's results and no random one: its compounds were picked by chemical class. Not every dose and run of a compound is shown. T/C is the treated group as % of the vehicle group. Where survival is the endpoint, the PubChem record calls one and a half times the control and up active, and a quarter to a half above the control has no call in these data; cut-offs in other NCI protocols can differ. Some T/C values are marked as having no survivor count here; that says nothing about deaths at the dose. Schedules are NCI's codes, read here as Q, the interval in days (D) or hours (H), X, the number of doses. Some entries hold several experiments; their values stand side by side, smallest first. Some schedules carry Z or #; the key to these is not given.

Test system: L1210 leukemia ip in BDF1 mice, survival T/C
Test: NCI In Vivo Anticancer Drug Screen. Data for tumor model L1210 Leukemia (intraperitoneal) in B6D2F1 (BDF1) mice
Details: T/C endpoint: mean survival time, higher T/C = longer survival

O=S=NN(CCCl)CCCl
T/C (dose: 2.1 mg/kg/injection, schedule: Q01DX015 (ip), vehicle: carboxymethylcellulose (CMC)): 98 % of control [survivor count not shown] | T/C (dose: 3.6 mg/kg/injection, schedule: Q01DX015 (ip), vehicle: carboxymethylcellulose (CMC)): 102 % of control [survivor count not shown] | T/C (dose: 5.0 mg/kg/injection, schedule: Q01DX001 (ip), vehicle: carboxymethylcellulose (CMC)): 112 % of control [survivor count not shown] | T/C (dose: 6.0 mg/kg/injection, schedule: Q01DX015 (ip), vehicle: carboxymethylcellulose (CMC)): 114 % of control [survivor count not shown] | T/C (dose: 9.0 mg/kg/injection, schedule: Q01DX001 (ip), vehicle: carboxymethylcellulose (CMC)): 113 % of control [survivor count not shown] | T/C (dose: 10.0 mg/kg/injection, schedule: Q01DX001 (ip), vehicle: carboxymethylcellulose (CMC)): 140 % of control [survivor count not shown] | T/C (dose: 10.0 mg/kg/injection, schedule: Q01DX015 (ip), vehicle: carboxymethylcellulose (CMC)): 117 % of control [survivor count not shown] | T/C (dose: 13.0 mg/kg/injection, schedule: Q01DX001 (ip), vehicle: carboxymethylcellulose (CMC)): 118 % of control [survivor count not shown] | T/C (dose: 20.0 mg/kg/injection, schedule: Q01DX001 (ip), vehicle: carboxymethylcellulose (CMC)): 135 [survivor count not shown] and 146 % of control [survivor count not shown] | T/C (dose: 30.0 mg/kg/injection, schedule: Q01DX001 (ip), vehicle: carboxymethylcellulose (CMC)): 143 % of control [survivor count not shown]

O=C(O)COc1cccc(N(CCCl)CCCl)c1
T/C (dose: 19.3 mg/kg/injection, schedule: Q01DX Z (ip), vehicle: methylcellulose (MC)): 119 % of control [survivor count not shown] | T/C (dose: 20.0 mg/kg/injection, schedule: Q01DX Z (ip), vehicle: methylcellulose (MC)): 138 % of control [survivor count not shown] | T/C (dose: 29.0 mg/kg/injection, schedule: Q01DX Z (ip), vehicle: methylcellulose (MC)): 104 % of control [survivor count not shown] | T/C (dose: 30.0 mg/kg/injection, schedule: Q01DX Z (ip), vehicle: methylcellulose (MC)): 121 % of control [survivor count not shown] | T/C (dose: 43.0 mg/kg/injection, schedule: Q01DX Z (ip), vehicle: methylcellulose (MC)): 114 % of control [survivor count not shown] | T/C (dose: 44.0 mg/kg/injection, schedule: Q01DX Z (ip), vehicle: methylcellulose (MC)): 130 % of control [survivor count not shown] | T/C (dose: 45.0 mg/kg/injection, schedule: Q01DX Z (ip), vehicle: methylcellulose (MC)): 126 % of control [survivor count not shown] | T/C (dose: 65.0 mg/kg/injection, schedule: Q01DX Z (ip), vehicle: methylcellulose (MC)): 97 % of control [survivor count not shown] | T/C (dose: 66.0 mg/kg/injection, schedule: Q01DX Z (ip), vehicle: methylcellulose (MC)): 140 % of control [survivor count not shown] | T/C (dose: 67.0 mg/kg/injection, schedule: Q01DX Z (ip), vehicle: methylcellulose (MC)): 128 % of control [survivor count not shown] | T/C (dose: 100.0 mg/kg/injection, schedule: Q01DX Z (ip), vehicle: methylcellulose (MC)): 130 % of control [survivor count not shown]
